The values that follow come from the supplement of paper PMC10849652.

The chains behind the UniProt entries cited, without tags or fusion partners. Where a name states a change or a piece, a line headed by the entry shows the natural chain unless it says otherwise.
UniProt Q13217: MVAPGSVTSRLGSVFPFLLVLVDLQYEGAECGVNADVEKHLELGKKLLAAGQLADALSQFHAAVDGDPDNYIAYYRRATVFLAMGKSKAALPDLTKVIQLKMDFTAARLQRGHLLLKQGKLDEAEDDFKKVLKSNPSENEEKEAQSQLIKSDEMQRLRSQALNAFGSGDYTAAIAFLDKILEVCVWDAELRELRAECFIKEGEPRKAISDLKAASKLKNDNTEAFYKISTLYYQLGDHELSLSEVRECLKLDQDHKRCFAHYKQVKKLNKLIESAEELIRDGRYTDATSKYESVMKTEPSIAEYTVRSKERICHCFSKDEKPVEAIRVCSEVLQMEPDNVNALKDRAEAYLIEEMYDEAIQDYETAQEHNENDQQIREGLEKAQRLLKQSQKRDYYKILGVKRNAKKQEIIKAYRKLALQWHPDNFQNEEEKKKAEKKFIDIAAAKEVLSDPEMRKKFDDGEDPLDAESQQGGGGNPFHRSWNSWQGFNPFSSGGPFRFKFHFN
UniProt Q14126: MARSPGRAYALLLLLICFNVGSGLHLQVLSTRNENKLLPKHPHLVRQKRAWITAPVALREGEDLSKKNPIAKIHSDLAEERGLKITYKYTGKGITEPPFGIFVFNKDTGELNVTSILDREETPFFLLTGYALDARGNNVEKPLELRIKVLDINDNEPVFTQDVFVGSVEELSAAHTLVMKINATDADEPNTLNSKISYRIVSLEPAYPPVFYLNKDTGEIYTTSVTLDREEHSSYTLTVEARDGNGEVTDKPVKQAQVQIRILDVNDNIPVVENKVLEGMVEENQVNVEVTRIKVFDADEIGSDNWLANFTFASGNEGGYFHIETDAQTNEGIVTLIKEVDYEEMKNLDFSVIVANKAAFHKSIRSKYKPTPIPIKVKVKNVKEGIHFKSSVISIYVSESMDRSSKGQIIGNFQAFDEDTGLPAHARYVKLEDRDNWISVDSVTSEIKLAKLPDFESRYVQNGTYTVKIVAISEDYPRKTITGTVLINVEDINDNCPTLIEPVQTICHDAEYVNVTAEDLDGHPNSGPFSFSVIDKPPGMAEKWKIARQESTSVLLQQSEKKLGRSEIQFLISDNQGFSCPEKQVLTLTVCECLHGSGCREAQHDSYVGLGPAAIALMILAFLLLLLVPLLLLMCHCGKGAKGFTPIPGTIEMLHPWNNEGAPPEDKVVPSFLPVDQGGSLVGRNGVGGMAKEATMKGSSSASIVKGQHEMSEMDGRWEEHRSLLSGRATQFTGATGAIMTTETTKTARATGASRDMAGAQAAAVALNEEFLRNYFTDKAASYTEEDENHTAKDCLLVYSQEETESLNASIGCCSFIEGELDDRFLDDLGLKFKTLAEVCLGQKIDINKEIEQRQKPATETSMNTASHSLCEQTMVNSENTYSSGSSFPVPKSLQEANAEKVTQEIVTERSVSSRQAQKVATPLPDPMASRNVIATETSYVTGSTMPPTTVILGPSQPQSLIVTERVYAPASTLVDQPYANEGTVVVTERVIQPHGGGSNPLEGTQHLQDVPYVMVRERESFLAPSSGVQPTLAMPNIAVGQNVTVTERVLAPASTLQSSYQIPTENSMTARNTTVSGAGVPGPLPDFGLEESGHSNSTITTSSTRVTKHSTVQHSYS
UniProt P42126: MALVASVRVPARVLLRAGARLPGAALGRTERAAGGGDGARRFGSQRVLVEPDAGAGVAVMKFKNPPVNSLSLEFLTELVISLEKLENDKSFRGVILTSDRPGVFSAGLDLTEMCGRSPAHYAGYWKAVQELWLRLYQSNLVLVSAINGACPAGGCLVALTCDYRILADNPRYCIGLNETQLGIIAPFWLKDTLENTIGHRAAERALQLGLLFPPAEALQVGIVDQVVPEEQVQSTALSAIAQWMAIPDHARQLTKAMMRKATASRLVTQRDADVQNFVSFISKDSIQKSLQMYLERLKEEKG
UniProt Q9Y295: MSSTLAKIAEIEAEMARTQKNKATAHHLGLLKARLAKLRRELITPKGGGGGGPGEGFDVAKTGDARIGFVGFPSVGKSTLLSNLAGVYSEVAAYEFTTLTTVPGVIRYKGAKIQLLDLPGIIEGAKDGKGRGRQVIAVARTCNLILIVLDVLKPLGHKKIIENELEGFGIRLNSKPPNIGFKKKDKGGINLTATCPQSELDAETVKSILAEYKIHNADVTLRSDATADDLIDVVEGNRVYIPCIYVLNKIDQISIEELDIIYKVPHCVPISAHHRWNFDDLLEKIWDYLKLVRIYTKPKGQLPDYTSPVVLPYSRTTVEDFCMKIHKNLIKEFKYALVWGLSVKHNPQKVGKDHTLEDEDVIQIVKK
UniProt P60981: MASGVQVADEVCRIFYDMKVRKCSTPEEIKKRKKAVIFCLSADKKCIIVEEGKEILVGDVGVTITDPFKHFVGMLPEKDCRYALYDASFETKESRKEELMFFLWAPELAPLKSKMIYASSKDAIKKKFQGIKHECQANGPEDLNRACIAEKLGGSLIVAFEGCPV
UniProt Q9BZ29: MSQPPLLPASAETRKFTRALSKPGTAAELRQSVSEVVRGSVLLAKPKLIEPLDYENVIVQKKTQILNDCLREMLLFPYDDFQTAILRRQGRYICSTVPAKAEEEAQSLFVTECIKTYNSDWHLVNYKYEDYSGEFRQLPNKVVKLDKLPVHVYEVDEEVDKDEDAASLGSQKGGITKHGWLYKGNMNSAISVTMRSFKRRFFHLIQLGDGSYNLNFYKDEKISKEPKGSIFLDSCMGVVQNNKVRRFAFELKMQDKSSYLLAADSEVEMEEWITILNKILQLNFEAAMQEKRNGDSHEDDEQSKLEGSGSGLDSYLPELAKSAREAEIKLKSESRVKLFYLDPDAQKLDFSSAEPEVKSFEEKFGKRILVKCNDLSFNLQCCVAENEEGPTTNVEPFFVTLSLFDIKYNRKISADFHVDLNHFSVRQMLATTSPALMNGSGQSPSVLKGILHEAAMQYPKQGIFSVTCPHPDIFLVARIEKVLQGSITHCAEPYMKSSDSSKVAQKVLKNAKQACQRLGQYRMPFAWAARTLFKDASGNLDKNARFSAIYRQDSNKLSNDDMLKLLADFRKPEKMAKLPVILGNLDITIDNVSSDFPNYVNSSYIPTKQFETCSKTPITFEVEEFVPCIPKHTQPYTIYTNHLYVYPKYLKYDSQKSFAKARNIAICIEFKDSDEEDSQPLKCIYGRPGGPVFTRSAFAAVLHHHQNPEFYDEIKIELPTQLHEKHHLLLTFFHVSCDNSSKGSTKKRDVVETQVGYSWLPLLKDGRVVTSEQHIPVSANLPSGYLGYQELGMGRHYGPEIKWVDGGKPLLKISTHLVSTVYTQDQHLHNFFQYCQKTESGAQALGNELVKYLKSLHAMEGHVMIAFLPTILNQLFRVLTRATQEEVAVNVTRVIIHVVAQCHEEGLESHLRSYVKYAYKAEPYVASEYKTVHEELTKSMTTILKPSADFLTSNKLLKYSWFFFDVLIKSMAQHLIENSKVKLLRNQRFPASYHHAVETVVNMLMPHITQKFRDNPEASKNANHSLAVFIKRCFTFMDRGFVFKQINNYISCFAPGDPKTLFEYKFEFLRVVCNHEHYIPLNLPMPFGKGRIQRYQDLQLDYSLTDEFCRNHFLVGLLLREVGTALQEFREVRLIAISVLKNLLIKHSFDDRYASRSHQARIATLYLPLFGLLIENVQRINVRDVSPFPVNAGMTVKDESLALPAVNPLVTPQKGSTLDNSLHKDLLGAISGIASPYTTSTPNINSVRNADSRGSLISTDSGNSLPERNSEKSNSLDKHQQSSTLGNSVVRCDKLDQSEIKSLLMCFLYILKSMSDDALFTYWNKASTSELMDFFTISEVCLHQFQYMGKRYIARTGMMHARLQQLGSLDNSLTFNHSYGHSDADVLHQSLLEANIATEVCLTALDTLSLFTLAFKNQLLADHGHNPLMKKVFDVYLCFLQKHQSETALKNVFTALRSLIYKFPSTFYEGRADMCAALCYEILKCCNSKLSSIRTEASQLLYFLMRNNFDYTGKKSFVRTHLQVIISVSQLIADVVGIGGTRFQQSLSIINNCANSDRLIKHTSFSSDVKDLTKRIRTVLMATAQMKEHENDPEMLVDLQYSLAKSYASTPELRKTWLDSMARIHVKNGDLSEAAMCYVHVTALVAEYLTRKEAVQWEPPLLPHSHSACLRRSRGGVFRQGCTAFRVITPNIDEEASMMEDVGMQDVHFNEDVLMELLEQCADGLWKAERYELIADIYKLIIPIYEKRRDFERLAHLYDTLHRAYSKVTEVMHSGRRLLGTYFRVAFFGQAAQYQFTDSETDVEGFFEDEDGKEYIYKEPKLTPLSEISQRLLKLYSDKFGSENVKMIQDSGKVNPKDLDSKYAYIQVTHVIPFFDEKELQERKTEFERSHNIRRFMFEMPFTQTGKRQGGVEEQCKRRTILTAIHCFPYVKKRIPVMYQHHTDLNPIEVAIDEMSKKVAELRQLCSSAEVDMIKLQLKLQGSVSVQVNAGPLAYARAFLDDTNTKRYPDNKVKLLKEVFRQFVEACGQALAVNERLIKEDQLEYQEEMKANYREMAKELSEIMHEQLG
UniProt Q9BQC3: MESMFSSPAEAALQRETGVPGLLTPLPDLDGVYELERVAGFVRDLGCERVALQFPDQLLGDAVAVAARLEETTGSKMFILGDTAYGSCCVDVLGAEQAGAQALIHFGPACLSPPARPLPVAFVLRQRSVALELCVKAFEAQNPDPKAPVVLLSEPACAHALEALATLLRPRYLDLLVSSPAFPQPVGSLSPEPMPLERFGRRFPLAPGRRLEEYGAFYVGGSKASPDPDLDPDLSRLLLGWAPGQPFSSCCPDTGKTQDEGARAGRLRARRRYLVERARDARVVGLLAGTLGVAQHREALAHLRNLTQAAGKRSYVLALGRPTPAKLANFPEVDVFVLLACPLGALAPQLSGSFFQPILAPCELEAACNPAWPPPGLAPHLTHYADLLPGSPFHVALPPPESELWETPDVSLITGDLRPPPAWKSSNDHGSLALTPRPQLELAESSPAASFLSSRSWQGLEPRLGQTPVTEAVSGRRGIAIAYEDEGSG
UniProt Q02487, whole entry, looked up: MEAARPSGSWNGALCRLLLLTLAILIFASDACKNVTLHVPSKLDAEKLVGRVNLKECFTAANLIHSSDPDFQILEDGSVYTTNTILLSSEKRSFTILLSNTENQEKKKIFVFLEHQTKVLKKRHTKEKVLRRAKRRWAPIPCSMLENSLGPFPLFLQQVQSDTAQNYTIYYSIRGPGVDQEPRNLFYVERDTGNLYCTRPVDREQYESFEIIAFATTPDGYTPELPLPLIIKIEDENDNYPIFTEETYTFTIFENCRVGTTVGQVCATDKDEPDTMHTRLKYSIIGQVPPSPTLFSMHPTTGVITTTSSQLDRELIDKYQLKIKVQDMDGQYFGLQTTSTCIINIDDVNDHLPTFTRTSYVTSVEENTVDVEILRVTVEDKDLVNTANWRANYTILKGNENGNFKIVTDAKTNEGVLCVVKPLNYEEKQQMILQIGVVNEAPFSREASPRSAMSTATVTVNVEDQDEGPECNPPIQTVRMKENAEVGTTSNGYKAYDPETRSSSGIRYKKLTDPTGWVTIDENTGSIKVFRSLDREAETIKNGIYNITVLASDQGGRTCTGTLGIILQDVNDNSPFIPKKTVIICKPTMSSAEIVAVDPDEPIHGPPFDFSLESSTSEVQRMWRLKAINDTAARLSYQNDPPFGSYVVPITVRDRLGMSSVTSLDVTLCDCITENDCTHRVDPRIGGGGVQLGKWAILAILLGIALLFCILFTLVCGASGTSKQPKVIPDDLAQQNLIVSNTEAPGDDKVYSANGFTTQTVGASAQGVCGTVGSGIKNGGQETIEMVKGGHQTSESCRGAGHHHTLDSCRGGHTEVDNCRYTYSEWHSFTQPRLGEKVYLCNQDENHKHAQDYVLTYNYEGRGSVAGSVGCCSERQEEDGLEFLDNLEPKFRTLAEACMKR
UniProt Q9Y6G9, whole entry, looked up: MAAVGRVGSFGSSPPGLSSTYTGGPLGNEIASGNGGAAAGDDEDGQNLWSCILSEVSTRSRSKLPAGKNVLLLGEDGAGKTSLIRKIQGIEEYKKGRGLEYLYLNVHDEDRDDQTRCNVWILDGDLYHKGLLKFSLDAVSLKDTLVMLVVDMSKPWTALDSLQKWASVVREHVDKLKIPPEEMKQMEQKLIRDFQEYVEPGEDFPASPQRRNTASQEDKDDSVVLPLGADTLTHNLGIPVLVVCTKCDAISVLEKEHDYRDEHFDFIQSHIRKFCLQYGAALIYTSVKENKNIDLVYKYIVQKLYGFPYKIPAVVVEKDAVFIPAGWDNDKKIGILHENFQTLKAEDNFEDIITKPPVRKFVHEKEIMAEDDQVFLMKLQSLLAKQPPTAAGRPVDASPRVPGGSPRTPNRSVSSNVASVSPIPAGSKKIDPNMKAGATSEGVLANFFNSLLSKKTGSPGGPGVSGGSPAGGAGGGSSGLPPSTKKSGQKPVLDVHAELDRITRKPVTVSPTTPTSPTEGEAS
UniProt Q9C005, whole entry, looked up: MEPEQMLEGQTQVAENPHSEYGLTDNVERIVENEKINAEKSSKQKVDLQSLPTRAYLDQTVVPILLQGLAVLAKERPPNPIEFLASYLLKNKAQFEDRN

The other results are listed elsewhere or left out.

Compound in one assay: C1COCCN1CCN2C3=CC=CC=C3N=C2NC(=O)C4=CC(=CC=C4)[N+](=O)[O-] [IRAK-1-4 Inhibitor I]
Nature of the assay: log2 fold change, soluble protein after heating vs DMSO (PISA); higher = thermal stabilisation; K562 cells, 10 uM, 30 min; active = over 0.2 and 3.5 SD of the protein, either way, in both replicates (recomputed). In short, it runs like this:
(§1)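 K562 cells at 2×10^6 cells/mL were treated with 10 μM compound for 30 min. Aliquots were heated for 3 min across 48°C-58°C, pooled, and extracted in PBS with 0.5% NP-40 at 4°C; soluble protein was the supernatant after 21,000xg for 90 min. Soluble protein was quantified by TMTpro 16plex LC-MS/MS with channel sums equalised, and reported as log2 fold change in thermal stability against DMSO controls, with values from duplicates.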
As to DNAJC3 (UniProt Q13217), the log2 fold change is inactive: -0.012.
For DSG2 (UniProt Q14126), the log2 fold change was inactive: 0.037.
On the same count and under the same terms, the same measure for ECI1 (UniProt P42126): inactive: 0.007; for DRG1 (UniProt Q9Y295): inactive: -0.031; for DSTN (UniProt P60981): inactive: 0.027.
As to DOCK9 isoform 4 (UniProt Q9BZ29), the log2 fold change was inactive: 0.052.
On the same count and under the same terms, as for DPH2 (UniProt Q9BQC3), the figure is inactive: 0.006; as for DSC2 (UniProt Q02487), inactive: 0.033.
Turning to DYNC1LI1 (UniProt Q9Y6G9), the log2 fold change was inactive: -0.017.
As to ECM1 isoform 4 (UniProt Q16610), the log2 fold change was inactive: -0.047.

Compound in another assay: C=CC(=O)N1CCC[C@@H](n2nc(-c3ccc(Oc4ccccc4)cc3)c3c(N)ncnc32)C1 [ibrutinib]
Described as above. The procedure, abridged:
as §1
As to ECHDC1 (UniProt Q9NTX5), the log2 fold change is inactive: -0.01.
On to DNAJA3 (UniProt Q96EY1), for which the log2 fold change is inactive: 0.093.
Still for that read-out and setting: the same measure for DPH7 (UniProt Q9BTV6): inactive: 0.02; for DPM3 isoform 2 (UniProt Q9P2X0): inactive: -0.035.
With EARS2 isoform 2 (UniProt Q5JPH6), the log2 fold change was inactive: -0.204.
For DST (UniProt Q03001), the log2 fold change is inactive: 0.281.
The same measure, in the same setting: as for DPM1 (UniProt O60762), the figure is inactive: -0.022; as for ECE1 (UniProt P42892), inactive: -0.033; as for EDF1 (UniProt O60869), inactive: 0.001.
In the case of DPY19L4 (UniProt Q7Z388), the log2 fold change is inactive: 0.043.
Take DNAJB6 (UniProt O75190): the log2 fold change was inactive: 0.006.
On to EDEM1 (UniProt Q92611), for which the log2 fold change is inactive: 0.124.
On to DNAJB4 (UniProt Q9UDY4), for which the log2 fold change is inactive: 0.028.
As to EBP (UniProt Q15125), the log2 fold change is inactive: 0.007.
Take DUT (UniProt P33316): the log2 fold change is inactive: 0.004.
Take DPF2 (UniProt Q92785): the log2 fold change is inactive: -0.013.
Consider EDARADD (UniProt Q8WWZ3), for which the log2 fold change was inactive: 0.046.
For DUS4L (UniProt O95620), the log2 fold change is inactive: 0.
On the same count and under the same terms, as for DR1 (UniProt Q01658), the figure is inactive: 0.01.
In the case of DUSP12 (UniProt Q9UNI6), the log2 fold change was inactive: -0.065.
For the target EAF1 (UniProt Q96JC9), the log2 fold change is inactive: -0.054.
As for DPH1 (UniProt Q9BZG8), the log2 fold change was inactive: -0.031.
For the target DPY30 (UniProt Q9C005), the log2 fold change is inactive: 0.
As to DNMT1 isoform 2 (UniProt P26358), the log2 fold change was inactive: -0.009.
On the same count and under the same terms, as for DNAJC3 (UniProt Q13217), the figure is inactive: -0.044.
Still for that read-out and setting: as for DSG2 (UniProt Q14126), the figure is inactive: 0.044; as for ECI1 (UniProt P42126), inactive: 0.035; as for DRG1 (UniProt Q9Y295), inactive: 0.017.
As for DSTN (UniProt P60981), the log2 fold change was inactive: -0.007.
For the target DOCK9 isoform 4 (UniProt Q9BZ29), the log2 fold change is inactive: -0.019.
Take DPH2 (UniProt Q9BQC3): the log2 fold change is inactive: -0.031.
Still for that read-out and setting: the same measure for DSC2 (UniProt Q02487): inactive: 0.075.
For the target DYNC1LI1 (UniProt Q9Y6G9), the log2 fold change is inactive: -0.05.
Same read-out and setting: the same measure for ECM1 isoform 4 (UniProt Q16610): inactive: -0.032.

Compound in the next assay: CC(=O)c1cnc2ccc(-c3cc(Cl)c(O)c(Cl)c3)nc2c1N[C@H]1CC[C@H](CN(C)C)CC1
The description is as above. In short, it runs like this: as §1
In the case of ECHDC1 (UniProt Q9NTX5), the log2 fold change is inactive: -0.018.
Consider DNAJA3 (UniProt Q96EY1), for which the log2 fold change was inactive: 0.
Consider DPH7 (UniProt Q9BTV6), for which the log2 fold change is inactive: -0.046.
DPM3 isoform 2 (UniProt Q9P2X0): the log2 fold change is inactive: -0.055.
With EARS2 isoform 2 (UniProt Q5JPH6), the log2 fold change is inactive: -0.062.
Turning to DST (UniProt Q03001), the log2 fold change was inactive: -0.01.
As to DPM1 (UniProt O60762), the log2 fold change was inactive: -0.003.
On to ECE1 (UniProt P42892), for which the log2 fold change was inactive: -0.014.
EDF1 (UniProt O60869): the log2 fold change is inactive: 0.029.
With DPY19L4 (UniProt Q7Z388), the log2 fold change was inactive: 0.017.
For the target DNAJB6 (UniProt O75190), the log2 fold change is inactive: -0.045.
For the target EDEM1 (UniProt Q92611), the log2 fold change was inactive: 0.085.
Take DNAJB4 (UniProt Q9UDY4): the log2 fold change was inactive: -0.102.
As for EBP (UniProt Q15125), the log2 fold change is inactive: -0.284.
Consider DUT (UniProt P33316), for which the log2 fold change is inactive: -0.029.
In the case of DPF2 (UniProt Q92785), the log2 fold change was inactive: -0.052.
Turning to EDARADD (UniProt Q8WWZ3), the log2 fold change was inactive: -0.163.
As to DUS4L (UniProt O95620), the log2 fold change was inactive: -0.028.
Still for that read-out and setting: as for DR1 (UniProt Q01658), the figure is inactive: 0.019.
In the case of DUSP12 (UniProt Q9UNI6), the log2 fold change is inactive: 0.006.
The same measure, in the same setting: the same measure for EAF1 (UniProt Q96JC9): inactive: -0.04.
For DPH1 (UniProt Q9BZG8), the log2 fold change was inactive: -0.066.
Turning to DPY30 (UniProt Q9C005), the log2 fold change was inactive: -0.001.
Consider DNMT1 isoform 2 (UniProt P26358), for which the log2 fold change is inactive: -0.012.
Same read-out and setting: the same measure for DNAJC3 (UniProt Q13217): inactive: 0.053.
Still for that read-out and setting: as for DSG2 (UniProt Q14126), the figure is inactive: -0.045.
ECI1 (UniProt P42126): the log2 fold change was inactive: -0.023.
Take DRG1 (UniProt Q9Y295): the log2 fold change was inactive: 0.034.
As for DSTN (UniProt P60981), the log2 fold change is inactive: 0.061.
In the case of DOCK9 isoform 4 (UniProt Q9BZ29), the log2 fold change was inactive: 0.043.
For DPH2 (UniProt Q9BQC3), the log2 fold change was inactive: -0.082.
As for DSC2 (UniProt Q02487), the log2 fold change was inactive: -0.033.
On to DYNC1LI1 (UniProt Q9Y6G9), for which the log2 fold change was inactive: -0.005.
As for ECM1 isoform 4 (UniProt Q16610), the log2 fold change was inactive: -0.03.
